Data on one compound can be found in patent US9896663B2, “Leukaemia stem cell line, its method of production and uses thereof” (Peter MacCallum Cancer Institute, priority 2016, dated 2018).

The test system of this data set is parental, vehicle and resistant cells. The settings on record: 600 nM I-BET 151, 48 hours; two-tailed Student's t-test; FIG. 2A.

Turning to `COc1cc2c(cc1-c1c(C)noc1C)ncc1[nH]c(=O)n([C@H](C)c3ccccn3)c12` [I-BET, I-BET 151], the “amount of intracellular and extracellular drug, resistant versus parental and vehicle cells” value is recorded as “no significance difference”.
